Source: patent US20130052192A1 (Novo Nordisk, published 2013)

Biological target: human CD62P (P-Selectin) on the surface of activated platelets (human)
Experiment: FACS on activated human platelets with surface CD62P

B1: EP-FpA-PB1.3 mAb construct, incubated without Thrombin (uncleaved) (antibody, human IgG4, V domains shown)
VH: EAQLQQSGPELVEPGASVKVSCKASGYTFTNYVMHWVKQKPGQGLEWIGFINPSNDGPKYNERFKNKATLTSDKSSSTAYMELSSLTSEVSAVYFCARARPGFDWYFDVWGAGTTVTVSS
VL: DIVMTQSQKFMSTSVGDRVSVTCKASQNVATNVVWYQQRPGQSPKALIYTASYRFSGVPERFSGSGSGTDFTLTITNVQSEDLADYFCQQYNNYPYTFGGGTKVEIQR
notes: also called Sample 2
binding: binds

Results are given in words; binding and its absence hold for the method and conditions named. Binding can be weak; no strength is given.
